Laboratory results: paper doi:10.1101/2025.06.17.660062 (bioRxiv, 2025)
No constants are given. Whether binding was seen depends on the method and setting. Binding calls can cover weak binding; strength is not graded here. Where a sequence is shown, tags or fusion partners need not be part of it.

Assays:
GST-BUB1^467-521 [1] = target: T1, GST-BUB1^467-521 (UniProt O43683); experiment: SEC
T1 sequence: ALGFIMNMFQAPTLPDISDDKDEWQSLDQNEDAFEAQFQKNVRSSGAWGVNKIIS

GST-BUB1^467-521 [2] = target: T1, GST-BUB1^467-521; experiment: pull-down

binding (GST-BUB1^467-521 [1]): binds
binding (GST-BUB1^467-521 [2]): binds
Substance: R^AAZZ (the non-phosphorylatable mutant of RZZ) (complex)
